{"source": "PubChem BioAssay AID1259415", "about": "(National Center for Advancing Translational Sciences (NCATS), 2018)", "note": "The campaign covered roughly 410,000 compounds. About 18,000 (4.4%) were called active. Inconclusive means that the source gave no clear call. Such entries were picked first, then a sample of the others. Cut-off read from the data, not from the text of the source: active = activity change below about -60%; inconclusive = no clear call, values can overlap the other calls; inactive = above about -39%. % is set by controls: 0 for no effect and ±100 for the full control effect.", "data": [{"experiment": "qHTS Assay for inhibitors of the human cytomegalovirus (HCMV)", "details": "HFF cells, HCMV-luciferase reporter, 72 h; at 57.5 µM; stronger effect = lower value", "summary_of_the_method": "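Screen run at 2 compound doses on HFFs infected with reporter HCMV, MOI 1 PFU/cell. Luciferase activity from cell lysates at 72 h post infection gave inhibition relative to buffer-only and Salinomycin wells.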", "values": [{"smiles": "CC(C1CC1)N(Cc1ccccc1)C(=O)NC(=O)c1ccccc1", "note": "(stereo unspecified)", "activity change, negative = inhibition": "inactive: 29.3%"}, {"smiles": "CC(C)S(=O)(=O)c1oc(-c2ccc(F)cc2)nc1S(=O)(=O)c1ccc(F)cc1", "activity change, negative = inhibition": "active: -98.8%"}, {"smiles": "COc1ccc(-n2c(C)cc(C(=O)CN3C(=O)c4ccccc4C3=O)c2C)cc1", "activity change, negative = inhibition": "inconclusive: -52.9%"}, {"smiles": "CC(C)(C)C1CCC(C(=O)Nc2cccnc2)CC1", "note": "(stereo unspecified)", "activity change, negative = inhibition": "active: -93.5%"}, {"smiles": "CC(=O)c1ccc(NC(=O)Cn2c(-n3nc(C)cc3C)nc(C)cc2=O)cc1", "activity change, negative = inhibition": "inactive: 0%"}, {"smiles": "COc1ccc(CC2(CO)CCN(C/C=C/c3ccccc3OC)CC2)cc1", "activity change, negative = inhibition": "inconclusive: -42.8%"}, {"smiles": "CC(O)C(=O)N/N=C/c1ccccc1C(=O)O", "note": "(stereo unspecified)", "activity change, negative = inhibition": "inactive: -32.1%"}, {"smiles": "O=C(N/N=C/c1ccncc1)c1cc([N+](=O)[O-])cc([N+](=O)[O-])c1", "activity change, negative = inhibition": "inconclusive: -41.3%"}, {"smiles": "Cc1cccn2c(=O)c3cc(C(=O)NCCc4ccc(S(N)(=O)=O)cc4)n(C)c3nc12", "activity change, negative = inhibition": "inactive: -2.93%"}, {"smiles": "O=C(Nc1cccc(F)c1)C1CC(=O)N(c2ccc(Br)cc2)C1", "note": "(stereo unspecified)", "activity change, negative = inhibition": "inactive: -1.62%"}, {"smiles": "CC(C)(C)c1ccc(OCC(=O)N(Cc2ccco2)Cc2ccccc2F)cc1", "activity change, negative = inhibition": "inactive: 14%"}, {"smiles": "Cc1cccc(C)c1NS(=O)(=O)c1ccc2c(c1)NC(=O)CO2", "activity change, negative = inhibition": "inconclusive: -51.7%"}, {"smiles": "CN1/C(=C\\C=C2/SC(=S)N(CC(=O)O)C2=O)C(C)(C)c2ccccc21", "activity change, negative = inhibition": "inconclusive: -42.1%"}, {"smiles": "CCN(CC)C(=O)[C@H]1CC(CC(=O)NCC23CC4CC(CC(C4)C2)C3)C(=O)N2CCc3c([nH]c4ccc(OC)cc34)[C@]12C", "note": "(stereo partly specified)", "activity change, negative = inhibition": "inconclusive: -48.4%"}, {"smiles": "CCN(C(=O)c1cc(S(=O)(=O)N2CCOCC2)cn1C)c1ccc(OC)cc1", "activity change, negative = inhibition": "active: -66.9%"}, {"smiles": "CCOc1ccccc1Nc1cc(C)nc2ccccc12", "activity change, negative = inhibition": "active: -62.4%"}, {"smiles": "COc1cccc(-c2cc(C(=O)NCc3ccccc3)[nH]n2)c1", "activity change, negative = inhibition": "inactive: 51.7%"}, {"smiles": "NC(=O)c1sc2nnc(-c3ccccc3)c(-c3ccccc3)c2c1N", "activity change, negative = inhibition": "inconclusive: -50.7%"}, {"smiles": "O=C(/C=C/c1ccccc1[N+](=O)[O-])OCC(=O)c1ccccc1", "activity change, negative = inhibition": "inconclusive: -43.3%"}, {"smiles": "O=C/C(=C\\Nc1ccc(Br)cc1)c1nc2ccccc2o1", "activity change, negative = inhibition": "inactive: -22.7%"}, {"smiles": "O=C(CSc1nc2ccccc2c(=O)n1Cc1ccco1)N1CCCCCC1", "activity change, negative = inhibition": "inconclusive: -54.8%"}, {"smiles": "CCCCCc1c(C)nc(Nc2nc(C)c3cc(OC)ccc3n2)[nH]c1=O", "activity change, negative = inhibition": "inconclusive: -57.6%"}, {"smiles": "Cc1oc(-c2ccc(C(=O)Nc3ccc(F)cc3F)cc2)nc1COc1ccccc1", "activity change, negative = inhibition": "inconclusive: 0%"}, {"smiles": "N#Cc1ccccc1OCC(=O)NC1CCCCCC1", "activity change, negative = inhibition": "inconclusive: -50.3%"}, {"smiles": "Cc1c(C)c(C)c(S(=O)(=O)n2[nH]c(=O)c(CCO)c2C)c(C)c1C", "activity change, negative = inhibition": "inconclusive: -45.6%"}, {"smiles": "CCOC(=O)Nc1ccc2c(CNC(C)c3ccccc3OC)cc(=O)oc2c1", "note": "(stereo unspecified)", "activity change, negative = inhibition": "inconclusive: -42.8%"}, {"smiles": "COCCn1c(=NC(=O)c2cc3ccccc3oc2=O)sc2cc(S(N)(=O)=O)ccc21", "activity change, negative = inhibition": "inconclusive: -53.6%"}, {"smiles": "Cc1c(/C(O)=C2/C(=O)C(=O)N(CCN3CCOCC3)C2c2ccco2)cnn1-c1ccccc1", "note": "(stereo unspecified)", "activity change, negative = inhibition": "inconclusive: 0%"}, {"smiles": "Cc1nonc1C1CCCN1Cc1cn[nH]c1-c1ccc2c(c1)OCO2", "note": "(stereo unspecified)", "activity change, negative = inhibition": "inconclusive: -40.5%"}, {"smiles": "Cc1ccc(-c2onc(C)c2C)cc1S(=O)(=O)N1CC(C)Oc2ccccc21", "note": "(stereo unspecified)", "activity change, negative = inhibition": "inconclusive: -51.6%"}, {"smiles": "Cc1ccc(-n2c(N)c(Br)c(=O)[nH]c2=O)cc1C", "activity change, negative = inhibition": "inconclusive: -40.8%"}, {"smiles": "CCCNS(=O)(=O)c1ccc(CCC(=O)N2CCN(c3ccc(OC)cc3)CC2)cc1", "activity change, negative = inhibition": "inconclusive: -43.6%"}, {"smiles": "Clc1ccc(-c2c[n+]3c(n2-c2ccccc2)SCC3)cc1", "activity change, negative = inhibition": "inconclusive: -56.1%"}, {"smiles": "Cc1nn(-c2ccccc2)c(C)c1NC(=O)CCl", "activity change, negative = inhibition": "inconclusive: -46.5%"}, {"smiles": "Cc1ccc(C(=O)N2CCC(C(=O)Nc3cccc([N+](=O)[O-])c3)CC2)cc1", "activity change, negative = inhibition": "inconclusive: -44.9%"}, {"smiles": "CCCN1CCN(CCCNC(=O)c2cnn(-c3ccc(C)cc3)c2-n2cccc2)CC1", "activity change, negative = inhibition": "inconclusive: -43%"}, {"smiles": "S=c1[nH]nc(Cc2ccccc2)n1Cc1ccco1", "activity change, negative = inhibition": "active: -109%"}, {"smiles": "CCOc1ccccc1N1CCN(C(=O)c2c(-c3ccccc3Cl)noc2C)CC1", "activity change, negative = inhibition": "inconclusive: -52.9%"}, {"smiles": "COc1cccc2sc(Nc3nnc(-c4ccccc4Cl)o3)nc12", "activity change, negative = inhibition": "active: -60.2%"}, {"smiles": "C=C(C)COc1ccc2c(C)c(CC(=O)N3C[C@H]4C[C@@H](C3)c3cccc(=O)n3C4)c(=O)oc2c1C", "activity change, negative = inhibition": "inconclusive: -45%"}, {"smiles": "C(=N\\c1ncnc2sccc12)/NOCc1ccccc1", "activity change, negative = inhibition": "inconclusive: -40.3%"}, {"smiles": "CSc1ncccc1C(=O)Nc1ccc2c(c1)OCCO2", "activity change, negative = inhibition": "inactive: 18.7%"}, {"smiles": "O=C(Nc1ccncc1)c1cccc(S(=O)(=O)N2CCN(c3ccc(F)cc3)CC2)c1", "activity change, negative = inhibition": "active: -71.4%"}, {"smiles": "Nc1c(Cl)cc2c(c1Oc1ccccc1)C(=O)c1ccccc1C2=O", "activity change, negative = inhibition": "inconclusive: -56.3%"}, {"smiles": "NNC(=O)c1cc2ccccc2cc1O", "activity change, negative = inhibition": "active: -74%"}, {"smiles": "CC(C)c1ccc(/C=N/N2CCN(c3ccccn3)CC2)cc1", "activity change, negative = inhibition": "active: -63.1%"}, {"smiles": "Cc1nc(Cn2c3ccc(NC(=S)NC4CCCCC4)cc3c(=O)n2C)cs1", "activity change, negative = inhibition": "inconclusive: -43.6%"}, {"smiles": "CC1CCCCN1S(=O)(=O)Cc1ccccc1Cl", "note": "(stereo unspecified)", "activity change, negative = inhibition": "inconclusive: -41.6%"}, {"smiles": "Cc1ccc(CN2CCC(n3nccc3NC(=O)c3ccccc3C)CC2)o1", "activity change, negative = inhibition": "inconclusive: -53.6%"}, {"smiles": "COc1cccc(C(=O)NC(c2ccc(Cl)cc2)c2cc(Cl)c3cccnc3c2O)c1", "note": "(stereo unspecified)", "activity change, negative = inhibition": "inconclusive: -40.8%"}, {"smiles": "CCN(CC)c1ccc(NC(=O)c2ccc3c(c2)c(C)c(C)n3C)cc1", "activity change, negative = inhibition": "inconclusive: -55.8%"}, {"smiles": "COc1ccc(C(=O)C2CCCN(Cc3cccn3-c3cccnc3)C2)cc1OC", "note": "(stereo unspecified)", "activity change, negative = inhibition": "inconclusive: -43%"}, {"smiles": "C[C@@H]1CN([C@@H](C)CO)C(=O)c2cc(Br)cnc2O[C@H]1CN(C)C(=O)C1CC1", "activity change, negative = inhibition": "inactive: -23.6%"}, {"smiles": "Cc1ccccc1OCCNC(=O)c1ccco1", "activity change, negative = inhibition": "inactive: 8.13%"}, {"smiles": "Nc1nonc1-n1nnc(C(=O)N/N=C/c2ccccc2F)c1-c1cccs1", "activity change, negative = inhibition": "inconclusive: -48.4%"}, {"smiles": "CC(C)(C)OC(=O)N[C@@H](Cc1ccccc1)C(=O)NCC1CCC(C(=O)N[C@@H](CC(=O)O)C(=O)O)CC1", "note": "(stereo partly specified)", "activity change, negative = inhibition": "inconclusive: -49.2%"}]}]}
